# Results: publication PMC8384837
# Positions count from the first letter of the chain named. The list shows a part of the results. For some of these results: At the low end of the ranking the order means little.
# Assays:
# Details in all cases: yeast three-hybrid, YBZ-1, SC-Leu-His + 0.5 mM 3-AT, 4 days
# [1] = biological target: T1, PUM1 PUF domain R5-GSK C1007G + R1008S + Q1011K (UniProt Q14671)
# T1 sequence: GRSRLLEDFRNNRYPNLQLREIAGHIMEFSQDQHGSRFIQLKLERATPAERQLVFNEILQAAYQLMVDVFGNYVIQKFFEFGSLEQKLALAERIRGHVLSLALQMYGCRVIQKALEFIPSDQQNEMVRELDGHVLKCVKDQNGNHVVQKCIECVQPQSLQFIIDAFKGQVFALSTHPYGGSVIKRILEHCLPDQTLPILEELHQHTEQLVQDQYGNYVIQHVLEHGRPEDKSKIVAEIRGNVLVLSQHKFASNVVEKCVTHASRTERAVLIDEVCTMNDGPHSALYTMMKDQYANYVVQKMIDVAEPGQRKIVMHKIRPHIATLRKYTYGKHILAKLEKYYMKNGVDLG
# [2] = biological target: T2, PUM1 PUF domain R5-GSR C1007G + R1008S + Q1011R (Homo sapiens) (UniProt Q14671)
# T2 sequence: T1 sequence with K184R
# [3] = biological target: T3, PUM1 PUF domain R5-GTQ C1007G + R1008T (Homo sapiens) (UniProt Q14671)
# T3 sequence: T1 sequence with S181T, K184Q
# [4] = biological target: T4, PUM1 PUF domain R5-GTR C1007G + R1008T + Q1011R (Homo sapiens) (UniProt Q14671)
# T4 sequence: T1 sequence with S181T, K184R
# [5] = biological target: T5, PUM1 PUF domain R5-GVR C1007G + R1008V + Q1011R (Homo sapiens) (UniProt Q14671)
# T5 sequence: T1 sequence with S181V, K184R
# [6] = biological target: T6, PUM1 PUF domain R5-HQD C1007H + R1008Q + Q1011D (Homo sapiens) (UniProt Q14671)
# T6 sequence: T1 sequence with G180H, S181Q, K184D
# [7] = biological target: T7, PUM1 PUF domain R5-HRP C1007H + Q1011P (Homo sapiens) (UniProt Q14671)
# T7 sequence: T1 sequence with G180H, S181R, K184P
# [8] = biological target: T8, PUM1 PUF domain R5-HRR C1007H + Q1011R (Homo sapiens) (UniProt Q14671)
# T8 sequence: T1 sequence with G180H, S181R, K184R
# [9] = biological target: T9, PUM1 PUF domain R5-IRP C1007I + Q1011P (UniProt Q14671)
# T9 sequence: T1 sequence with G180I, S181R, K184P
# [10] = biological target: T10, PUM1 PUF domain R5-ISR C1007I + R1008S + Q1011R (Homo sapiens) (UniProt Q14671)
# T10 sequence: T1 sequence with G180I, K184R
# [11] = biological target: T11, PUM1 PUF domain R5-KAG C1007K + R1008A + Q1011G (UniProt Q14671)
# T11 sequence: T1 sequence with G180K, S181A, K184G
# [12] = biological target: T12, PUM1 PUF domain R5-KAL C1007K + R1008A + Q1011L (Homo sapiens) (UniProt Q14671)
# T12 sequence: T1 sequence with G180K, S181A, K184L
# [13] = biological target: T13, PUM1 PUF domain R5-KAV C1007K + R1008A + Q1011V (UniProt Q14671)
# T13 sequence: T1 sequence with G180K, S181A, K184V
# [14] = biological target: T14, PUM1 PUF domain R5-KGE C1007K + R1008G + Q1011E (UniProt Q14671)
# T14 sequence: T1 sequence with G180K, S181G, K184E
# [15] = biological target: T15, PUM1 PUF domain R5-KGG C1007K + R1008G + Q1011G (Homo sapiens) (UniProt Q14671)
# T15 sequence: T1 sequence with G180K, S181G, K184G
# [16] = biological target: T16, PUM1 PUF domain R5-KGK C1007K + R1008G + Q1011K (UniProt Q14671)
# T16 sequence: T1 sequence with G180K, S181G
# [17] = biological target: T17, PUM1 PUF domain R5-KGL C1007K + R1008G + Q1011L (Homo sapiens) (UniProt Q14671)
# T17 sequence: T1 sequence with G180K, S181G, K184L
# [18] = biological target: T18, PUM1 PUF domain R5-KGR C1007K + R1008G + Q1011R (Homo sapiens) (UniProt Q14671)
# T18 sequence: T1 sequence with G180K, S181G, K184R
# [19] = biological target: T19, PUM1 PUF domain R5-KGV C1007K + R1008G + Q1011V (Homo sapiens) (UniProt Q14671)
# T19 sequence: T1 sequence with G180K, S181G, K184V
# [20] = biological target: T20, PUM1 PUF domain R5-KGW C1007K + R1008G + Q1011W (Homo sapiens) (UniProt Q14671)
# T20 sequence: T1 sequence with G180K, S181G, K184W
# [21] = biological target: T21, PUM1 PUF domain R5-KLH C1007K + R1008L + Q1011H (UniProt Q14671)
# T21 sequence: T1 sequence with G180K, S181L, K184H
# [22] = biological target: T22, PUM1 PUF domain R5-KQG C1007K + R1008Q + Q1011G (UniProt Q14671)
# T22 sequence: T1 sequence with G180K, S181Q, K184G
# [23] = biological target: T23, PUM1 PUF domain R5-KQL C1007K + R1008Q + Q1011L (Homo sapiens) (UniProt Q14671)
# T23 sequence: T1 sequence with G180K, S181Q, K184L
# [24] = biological target: T24, PUM1 PUF domain R5-KQM C1007K + R1008Q + Q1011M (Homo sapiens) (UniProt Q14671)
# T24 sequence: T1 sequence with G180K, S181Q, K184M
# [25] = biological target: T25, PUM1 PUF domain R5-KQR C1007K + R1008Q + Q1011R (Homo sapiens) (UniProt Q14671)
# T25 sequence: T1 sequence with G180K, S181Q, K184R
# [26] = biological target: T26, PUM1 PUF domain R5-KQV C1007K + R1008Q + Q1011V (UniProt Q14671)
# T26 sequence: T1 sequence with G180K, S181Q, K184V
# [27] = biological target: T27, PUM1 PUF domain R5-KRA C1007K + Q1011A (Homo sapiens) (UniProt Q14671)
# T27 sequence: T1 sequence with G180K, S181R, K184A
# [28] = biological target: T28, PUM1 PUF domain R5-KRF C1007K + Q1011F (Homo sapiens) (UniProt Q14671)
# T28 sequence: T1 sequence with G180K, S181R, K184F
# [29] = biological target: T29, PUM1 PUF domain R5-KRR C1007K + Q1011R (Homo sapiens) (UniProt Q14671)
# T29 sequence: T1 sequence with G180K, S181R, K184R
# [30] = biological target: T30, PUM1 PUF domain R5-KRW C1007K + Q1011W (UniProt Q14671)
# T30 sequence: T1 sequence with G180K, S181R, K184W
# [31] = biological target: T31, PUM1 PUF domain R5-KSR C1007K + R1008S + Q1011R (UniProt Q14671)
# T31 sequence: T1 sequence with G180K, K184R
# [32] = biological target: T32, PUM1 PUF domain R5-KVE C1007K + R1008V + Q1011E (UniProt Q14671)
# T32 sequence: T1 sequence with G180K, S181V, K184E
# [33] = biological target: T33, PUM1 PUF domain R5-KYF C1007K + R1008Y + Q1011F (UniProt Q14671)
# T33 sequence: T1 sequence with G180K, S181Y, K184F
# [34] = biological target: T34, PUM1 PUF domain R5-LFR C1007L + R1008F + Q1011R (Homo sapiens) (UniProt Q14671)
# T34 sequence: T1 sequence with G180L, S181F, K184R
# [35] = biological target: T35, PUM1 PUF domain R5-LKL C1007L + R1008K + Q1011L (UniProt Q14671)
# T35 sequence: T1 sequence with G180L, S181K, K184L
# [36] = biological target: T36, PUM1 PUF domain R5-LLR C1007L + R1008L + Q1011R (UniProt Q14671)
# T36 sequence: T1 sequence with G180L, S181L, K184R
# [37] = biological target: T37, PUM1 PUF domain R5-LSR C1007L + R1008S + Q1011R (Homo sapiens) (UniProt Q14671)
# T37 sequence: T1 sequence with G180L, K184R
# [38] = biological target: T38, PUM1 PUF domain R5-LYA C1007L + R1008Y + Q1011A (UniProt Q14671)
# T38 sequence: T1 sequence with G180L, S181Y, K184A
# [39] = biological target: T39, PUM1 PUF domain R5-LYL C1007L + R1008Y + Q1011L (Homo sapiens) (UniProt Q14671)
# T39 sequence: T1 sequence with G180L, S181Y, K184L
# [40] = biological target: T40, PUM1 PUF domain R5-LYS C1007L + R1008Y + Q1011S (Homo sapiens) (UniProt Q14671)
# T40 sequence: T1 sequence with G180L, S181Y, K184S
# [41] = biological target: T41, PUM1 PUF domain R5-LYV C1007L + R1008Y + Q1011V (Homo sapiens) (UniProt Q14671)
# T41 sequence: T1 sequence with G180L, S181Y, K184V
# [42] = biological target: T42, PUM1 PUF domain R5-MGR C1007M + R1008G + Q1011R (Homo sapiens) (UniProt Q14671)
# T42 sequence: T1 sequence with G180M, S181G, K184R
# [43] = biological target: T43, PUM1 PUF domain R5-MSR C1007M + R1008S + Q1011R (Homo sapiens) (UniProt Q14671)
# T43 sequence: T1 sequence with G180M, K184R
sequence,measurement,setting,value
GGCUAGAACUAGUGGAUCCCCCGGCGCCCGGCGGCUCGAGCCCGGGUAAGUGUGAAUAGUCUGCAUGCCGCCGGGCGCCAUGCCUGCAGGUCGACUCUAGAAAACAUG,binding signal (log2 enrichment (interaction score)),[1],-5.03
same,binding signal (log2 enrichment (interaction score)),[2],-3.92
same,binding signal (log2 enrichment (interaction score)),[3],-0.76
same,binding signal (log2 enrichment (interaction score)),[4],-1.42
same,binding signal (log2 enrichment (interaction score)),[5],0.01
same,binding signal (log2 enrichment (interaction score)),[6],-1.37
same,binding signal (log2 enrichment (interaction score)),[7],-0.73
same,binding signal (log2 enrichment (interaction score)),[8],-0.53
same,binding signal (log2 enrichment (interaction score)),[9],-4.6
same,binding signal (log2 enrichment (interaction score)),[10],-2.61
same,binding signal (log2 enrichment (interaction score)),[11],-2.87
same,binding signal (log2 enrichment (interaction score)),[12],-0.16
same,binding signal (log2 enrichment (interaction score)),[13],-4.48
same,binding signal (log2 enrichment (interaction score)),[14],-4.1
same,binding signal (log2 enrichment (interaction score)),[15],-0.84
same,binding signal (log2 enrichment (interaction score)),[16],-3.04
same,binding signal (log2 enrichment (interaction score)),[17],-0.49
same,binding signal (log2 enrichment (interaction score)),[18],-1.26
same,binding signal (log2 enrichment (interaction score)),[19],-1.57
same,binding signal (log2 enrichment (interaction score)),[20],-0.25
same,binding signal (log2 enrichment (interaction score)),[21],< -8.18
same,binding signal (log2 enrichment (interaction score)),[22],-3.92
same,binding signal (log2 enrichment (interaction score)),[23],-0.62
same,binding signal (log2 enrichment (interaction score)),[24],-0.88
same,binding signal (log2 enrichment (interaction score)),[25],-2.21
same,binding signal (log2 enrichment (interaction score)),[26],< -9.9
same,binding signal (log2 enrichment (interaction score)),[27],-1.17
same,binding signal (log2 enrichment (interaction score)),[28],-0.65
same,binding signal (log2 enrichment (interaction score)),[29],-1.72
same,binding signal (log2 enrichment (interaction score)),[30],-2
same,binding signal (log2 enrichment (interaction score)),[31],-2.33
same,binding signal (log2 enrichment (interaction score)),[32],-4.64
same,binding signal (log2 enrichment (interaction score)),[33],-2.7
same,binding signal (log2 enrichment (interaction score)),[34],0
same,binding signal (log2 enrichment (interaction score)),[35],< -8.29
same,binding signal (log2 enrichment (interaction score)),[36],< -5.69
same,binding signal (log2 enrichment (interaction score)),[37],-1.76
same,binding signal (log2 enrichment (interaction score)),[38],-2.94
same,binding signal (log2 enrichment (interaction score)),[39],-0.99
same,binding signal (log2 enrichment (interaction score)),[40],-0.1
same,binding signal (log2 enrichment (interaction score)),[41],0.17
same,binding signal (log2 enrichment (interaction score)),[42],0.42
same,binding signal (log2 enrichment (interaction score)),[43],-3.84

# Rewritten as tab-separated lines: part of the list above
sequence	measurement	setting	value
GGCUAGAACUAGUGGAUCCCCCGGCGCCCGGCGGCUCGAGCCCGGGUAAGUGUGAAUAGUCUGCAUGCCGCCGGGCGCCAUGCCUGCAGGUCGACUCUAGAAAACAUG	binding signal (log2 enrichment (interaction score))	[33]	-2.7
same	binding signal (log2 enrichment (interaction score))	[37]	-1.76
